For some assays here: At least one read-out could not be matched to a standard name with certainty. For some assays here: At least one compound was matched to its structure with a doubt left.
Legend:
[1] = target: T1, PPARγ (Homo sapiens, UniProt P37231); test: PPARγ reporter assay (INDIGO Biosciences); assay type: cell-based; conditions: 12.5 μM test compound; luciferase reporter cells, 20 hours; activity compared to rosiglitazone
T1 sequence (P37231 1-505): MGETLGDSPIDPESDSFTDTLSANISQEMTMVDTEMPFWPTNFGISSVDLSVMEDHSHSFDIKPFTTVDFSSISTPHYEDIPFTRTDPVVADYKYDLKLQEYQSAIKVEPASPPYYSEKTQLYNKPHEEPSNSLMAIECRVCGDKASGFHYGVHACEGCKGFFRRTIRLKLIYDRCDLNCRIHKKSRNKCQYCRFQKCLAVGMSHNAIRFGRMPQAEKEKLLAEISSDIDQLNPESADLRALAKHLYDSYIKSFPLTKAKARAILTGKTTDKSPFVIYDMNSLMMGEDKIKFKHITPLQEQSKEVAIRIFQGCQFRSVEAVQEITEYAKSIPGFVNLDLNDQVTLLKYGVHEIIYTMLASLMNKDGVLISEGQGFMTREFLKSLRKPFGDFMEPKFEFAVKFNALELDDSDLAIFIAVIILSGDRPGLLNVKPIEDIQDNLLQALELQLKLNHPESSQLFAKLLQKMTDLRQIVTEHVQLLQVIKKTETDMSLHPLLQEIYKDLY
Experimental: The functional effect of THIAA derivatives on PPARα and PPARγ activity was evaluated using a PPAR reporter assay (INDIGO Biosciences, Pa.). This assay utilizes non-human mammalian cells engineered to provide constitutive high level expression of PPARα, or PPARγ and containing a luciferase report gene specific to the appropriate PPAR. Following activation by agonist binding, PPAR induces expression of the luciferase reporter gene. Luciferase activity therefore provides a surrogate for measuring PPAR activity in agonist-treated cells.
0.1% DMSO was used as a solvent control for each assay. Plates were incubated for 20 hours in a humidified incubator at 37° C. and 5% CO2. After incubation, the cell medium was discarded and the cells were treated with 100 μL of luciferase detection reagent for 15 minutes. Plates were analyzed using a luminometer (Victor2, Perkin Elmer). Average relative light unit (RLU) and standard deviation were measured.

[2] = test system: LPS-induced expression of MMP-9, IL-1β, MCP-1, RANTES, and MIP-1α in THP-1 cells; test: LPS-induced inflammatory mediator panel in THP-1 cells; assay type: cell-based; conditions: rosiglitazone (10 μM)

SMILES | PPARγ % rosiglitazone (500 nM) [1] [%] | inhibition of inflammatory mediator production [2]
CCCCCCCCCC(=O)O[C@]1(C(=O)CCC(C)C)C(O)=C(C(=O)C(C)C)C(=O)[C@@H]1CCC(C)C [KDT0036, (1S,5R)-2-hydroxy-5-(3-methylbutyl)-1-(4-methylpentanoyl)-3-(2-methylpropanoyl)-4-oxocyclopent-2-en-1-yl decanoate] | 8 | –
CN(CCOc1ccc(CC2SC(=O)NC2=O)cc1)c1ccccn1 (centres unmarked) [Rosiglitazone, reference compound] | – | no inhibition or only weak inhibition
